Assays:
[1] = tested on: RPMI8226 myeloma cancer cells; assay type: cell-based, human
[2] = tested on: HL60 promyelocytic leukemia cells; assay type: cell-based, human
[3] = tested on: normal peripheral blood-derived mononuclear cells (PBMC); assay type: cell-based
[4] = tested on: THP1 acute monocytic leukemia cells; assay type: cell-based, human

Compound | fold lower IC50 than melphalan, RPMI8226 [1] | fold lower IC50 than melphalan, HL60 [2] | fold higher IC50 in PBMC than in leukemia cells [3] | fold higher IC50 in PBMC than in multiple myeloma (RPMI8226) cells [3] [fold] | fold lower IC50 than melphalan, THP1 [4] [fold] | fold higher IC50 in PBMC than in HL60 [3] [fold] | fold higher IC50 in PBMC than in THP1 [3]
CCOC(=O)C(N)Cc1ccc(N(CCCl)CCCl)cc1 (centres unmarked) [EE-MEL] | ~8 fold | ~5.5 fold | around 4.5 fold | ~2 | ~20 |  | 
CCOC(=O)C(Cc1ccc(N(CCCl)CCCl)cc1)N=CN1CCOCC1 (centres unmarked) [EE-MOR-MEL] | more than 2.8 fold | around 12 fold |  |  | ~160 |  | 
COC(=O)C(Cc1ccc(N(CCCl)CCCl)cc1)N=CN1CCOCC1 (centres unmarked) [EM-MOR-MEL] |  |  |  | ~2 |  | ~15 | around 90 fold
